The whole screen tested about 53,000 sequences, of which about 3,700 (7%) were called active.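 Rule for the calls: active = gene knockdowns whose robust z-score for IL-1 alpha signal is at least 2 or at most -2, so actives lie on both sides; inactive = the rest.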 This is one part of the list.
experiment: Components of the Cytosolic LPS Sensing Pathway: Gene Identification via Genome-wide siRNA Screen; details: RAW264.7 macrophages, IL-1a HTRF, actives lie on both sides, screened at 100 nM (by protocol), cells primed 5 h with Pam3CSK4 first;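 note: robust z of the log signal after scaling to non-targeting control siRNA wells of the plate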
Summary of the method: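 Three distinct siRNAs per gene were tested singly at 100 nM in RAW264.7 macrophages. Following Pam3CSK4 priming and 24 hour LipidA transfection, IL-1a secretion was read by HTRF.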

Sequence | z-score
GGCAUAUUCUUUUCAACACTT against Arv1 | inactive: -1.78
GCUACUUCCAAUUGAACAATT against Fsd2 | inactive: -0.716
GGCCAGAUAUUAUAAGAAATT against Gtdc1 | inactive: 0.332
GCUCCUAGCAGCUCUGAUGTT against Trim33 | inactive: -0.396
GGAUUUAGGACAAAAGGCATT against Noc3l | inactive: -1.44
GGAAGAAUUGAGGAAAUAGTT against Bbx | inactive: 1.03
CGUUAGCAUCAGGUCAAGUTT against Zfp251 | inactive: -0.323
GGAAGUCUGCCUGUUCUUGTT against Galnt10 | inactive: 0.744
GGUUAUCACAGGUAAAUGATT against Sim1 | inactive: 0.524
CGUUUGACCAAAACAGAAUTT against Fbxw10 | inactive: 0.709
GGUGCAGUCCUCCAGAAUUTT against Sppl2b | inactive: 1.04
GCAAAACCCAACAACUCUGTT against Lig3 | inactive: 1.05
GCAAAAUGGUUCCUUUGGATT against Sec24c | inactive: -0.396
GGAUCCUGAUCAGCUAUAUTT against Kat2a | inactive: -0.763
GCUAUCGGCGUGAUUCAGATT against Fut7 | inactive: 0.304
GGACUUUCUUCACGUGUAUTT against Fbxl12os | inactive: 0.934
GCACGAAGGUCGUUAUUAUTT against Wls | inactive: -0.28
GGGAGACCACAAUCAGCCATT against Kirrel | inactive: -0.28
GCCUGUGUAUUCUCGCUAUTT against Mon1a | inactive: 0.345
GGCCUAUCCUCCAACAACATT against Yipf5 | inactive: -0.148
GGCAUCAAAGAGAUCAUAGTT against Atp8a2 | inactive: -0.885
GCUGAGGACAUAUAAACUCTT against Nipsnap1 | inactive: -0.105

Sequence | z-score
GGCAACAUUAUCAACAUGUTT against Bdh2 | inactive: -1.29
GGUGUCGGAUAUAGAAAAGTT against Pnma1 | inactive: -0.493
CGUCGUAUAAAUCGUAAAGTT against Tent4a | inactive: 0.353
GGCAGUUUCUUCUUCCAAATT against H1f1 | active: 2.89
GGCCAAGUUCAACAUUCCATT against Lilrb4a | inactive: 0.539
GCGAAACAUAAACUGGGCATT against Fgd2 | inactive: 1.37
GGCUUAAGGUGAGAUAUUCTT against Sp9 | inactive: -0.524
CCUGUGGAUUAUGAGUUCATT against Zeb1 | inactive: 0.0702
GGACCUAAGGACUUGUUGATT against Chdh | inactive: -0.584
GGUAUUCAAUACACAAUUCTT against Mlh1 | inactive: 1.32
GCCGAAUCACUUAAGUCCATT against Fbln1 | inactive: -1.15
GGGACAGUACAGAGUGCUGTT against Hmx1 | inactive: 0.755
GGAAGAAAGAGAGGUGUGATT against Nxf2 | active: -2.26
GGAAAAUGUAAACAAGUACTT against Xpo5 | inactive: -0.595
GUCAUGCAGCUCCUUUGGUTT against Olfr635 | inactive: 0.0979
GGCCAGACAUGUUGAAGAATT against Ssna1 | active: -2.42
GCCUUCCUAAAGGAUUACUTT against Ndst1 | inactive: 1.34
CGAAGGAGUCAAAACUGGGTT against Klk1b8 | inactive: -1.79
GGUUUUGACUCUGUGAUAUTT against Sh3kbp1 | inactive: -0.505
GGAAGUCACGCUGAACAAATT against Cenps | inactive: 0.754
GAUGGUCCAGAGCGACUUCTT against Pou3f3 | active: 2.14
GCCACUCAACAUUAAAUCCTT against Tbc1d8 | inactive: 0.0844

Sequence | z-score
GGAGCAAAGUCUAAUAGCATT against Ercc1 | inactive: 1.03
GGAAAUUCUAGUCAAAUGCTT against Sp7 | inactive: -0.188
CCUCAAAGUGUUAGGAUGATT against Slc35e4 | inactive: 1.56
GCAGGCUAACCACAUUUGCTT against Zic4 | inactive: 1.25
GGGACACUACCCUGAUGAUTT against Vmn1r205 | active: -2.05
GGACAUGACAUUCCUAUCCTT against Trav7d-6 | inactive: -0.759
GCUACAGCCGAGAGAAAUGTT against Tspan14 | inactive: 0.0481
GGUAGAAAGAUUGAGAGUUTT against Gm11961 | inactive: 0.765
GGAGUGUUUGAGAAAUACCTT against Pnpla7 | active: 3.32
GGUUGGAUUGGGAUUUGAATT against Vdac3 | inactive: -1.24
CCUACGAGUUUUGCAUUUATT against Slc25a51 | active: -2.46
GGCCACUUGAGAACAUUCGTT against Nop10 | inactive: 0.331
GCUCCAGAUGGGUAGAUCUTT against Ptrh1 | inactive: -1.8
GCGACACGUCUCCAGAUGATT against Bloc1s6 | inactive: -0.701
CCUUAUGGGUAGAAAACCUTT against Mtmr2 | inactive: -0.561
GCGGUUUGUCUUCAACAAGTT against Il1b | inactive: 0.22
CCUACCUUCGAAUCUCAGUTT against Dusp15 | inactive: -0.964
CCUCUAGAUAGUGUUAGAGTT against Smarcd1 | active: -2.19
CCGUCCUUCUGAGAAAUAATT against Tfip11 | inactive: 0.108
GCUCAGUUGUUUUUCAUUCTT against Olfr782 | inactive: -0.556
GGCAACUUUGAAGUCUUGATT against Dntt | inactive: -0.488
GCCUAUACAUCGGACAAUCTT against Apcs | inactive: 0.623

Random excerpt: six records from the list
Sequence | z-score
GGAAAUUCUAGUCAAAUGCTT against Sp7 | inactive: -0.188
GCUACAGCCGAGAGAAAUGTT against Tspan14 | inactive: 0.0481
GGGACACUACCCUGAUGAUTT against Vmn1r205 | active: -2.05
GCUCAGUUGUUUUUCAUUCTT against Olfr782 | inactive: -0.556
GCAGGCUAACCACAUUUGCTT against Zic4 | inactive: 1.25
GCUCCAGAUGGGUAGAUCUTT against Ptrh1 | inactive: -1.8

(further entries)

Sequence | z-score
GGAAUGUUCUGUCGCUAUGTT against Nrp1 | inactive: 0.966
GCUACUCUACUGGUUCUUATT against Pltp | inactive: -0.805
GGAAAGGCUCGGCUUUUGATT against Ormdl2 | inactive: -0.0151
GCAGGAGACGCAAUAGAAATT against Dand5 | inactive: 1.26
GCCUAAGGGAGACUCUUUGTT against Ano7 | active: -2.02
GAUGCUCAUCAAUAUCGUATT against Olfr1109 | inactive: -0.651
GCCUUUCGUGGUGUCAGCUTT against Chst2 | inactive: 0.304
GGAAGCACAUCAAUAGGGCTT against Olfr828 | inactive: 0.567
GGAAGUCACCAUCAACCAGTT against Krt4 | inactive: 0.168
GUCCUGCACUUUUUGGCUCTT against Olfr1223 | inactive: 1.12
GGAACUUUCUGAAGAAACATT against Oasl2 | inactive: -1.46
GGGAAGAAAAGAAGUAUGUTT against Atp10a | inactive: 0.0464
GGCAAAUUAGCUAGUAUCATT against Rai2 | active: -2.2
GGCGGUUUUAGUGAAUAACTT against Golm1 | active: 2.17
GGAACACUGGAACUAUUUUTT against Sipa1l1 | inactive: 0.516
CGGCUGAUGCUUGACCUAATT against Plppr2 | inactive: -1.33
GGAAGAGGCUGAAGUAAAATT against Brd8 | inactive: 0.684
GGUAAUCUUUCAGUUACCCTT against Six4 | inactive: -0.162
GGUGAUGUGGAAGCAUUUGTT against Adrm1 | inactive: 0.254
CCUUCUCUGCCUCGAUGAUTT against Cox14 | inactive: -1.23
GGGUUUGCAUCACUUUGUUTT against Olfr1245 | inactive: -0.961
GGAUGAUUUCCAGAGAGUATT against Rdh5 | inactive: -0.398

Sequence | z-score
CCAUUGGUACUCUUUCCAATT against Megf10 | inactive: 0.171
GGAAUUUCGGGACAAAAUUTT against Olfr654 | inactive: -0.171
GGAAGUGAUUCUGCUAUGUTT against Cenpn | inactive: -1.69
GGAAGAAUCGCUGCUACCGTT against Mrpl20 | inactive: 1.06
GGAAACGAUGCAAGAACCCTT against Zp3r | inactive: 0.625
GGAAAGAAAAACGUAGGCGTT against 4933402J07Rik | inactive: -1.16
GGCCUGGCAUGAACAUAAATT against Atf5 | inactive: -1.36
GGAAAGCAGACUCAAUGAGTT against Fibin | inactive: 0.0656
CGUUCAAGCUCAAAGAGCATT against Slirp | inactive: 0.511
GGUGGAAUGAAAUAUGAAGTT against Ptp4a1 | inactive: 0.741
AGAGAGAAAUGGUAGCGUATT against Oog2 | inactive: -1.18
GGAACACAGGUUAAGAAGGTT against Eif2b5 | inactive: -0.21
GCUAACUGAUGCUAAAGGATT against Dnajc15 | inactive: 0.825
GCUACUACCUGGCAGUUAGTT against Cyp4b1 | inactive: -0.00582
GGAACAAGGAUGCUCAUACTT against Ankmy1 | inactive: -1.38
GGUAUGAGAUUACCUUCACTT against 1700037H04Rik | inactive: -1.16
GCUAUACUAUUGAAGAAAGTT against Tdp2 | inactive: -0.431
GGAAACAAGAAGAACGAUGTT against Camk2a | inactive: 1.47
GGCCAAAGGAUUUCUUAUCTT against Ndufa6 | inactive: 0.28
